Measured values taken from patent US20060167115A1, “Compositions for the preservation of timber” (priority 2003, published 2006).

Experiment: Penetration of TBBA into timber via vacuum impregnation (uptake)
Conditions: aqueous TBBA solution 20.16% w/w; 20x20x20 mm Scots pine sapwood blocks, vacuum impregnated; one value per block

For `CC(C)(c1cc(Br)c(O)c(Br)c1)c1cc(Br)c(O)c(Br)c1` [TBBA, Tetrabromobisphenol A], the “TBBA Uptake (mg)” value was 1,369 mg and 1,100 mg and 1,311 mg and 1,115 mg and 1,113 mg and 1,197 mg.

Where “and” joins values, the source holds several entries; their conditions need not be identical. Equal entries are not always repeated.
